Source: the supplement of paper PMC12823440, “Inhibitors supercharge kinase turnover through native proteolytic circuits” (Nature, 2025)
Counter-ions that a name gives are not always drawn. The list shows a part of the results. The calls rarely recur for the same compound in another form.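 In K562 cells expressing nanoluciferase-fused kinases, luminescence was recorded at 4 h intervals between 2 and 18 h, normalized as percent of control with DMSO at 100% and a positive control at 0%. A significant (2 sigma) signal drop marks a time point as decreased. The authors' rule for a hit is not shown and takes in more than the number of time points.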

Chains of the proteins cited; added tags and fusions are not shown. Lines headed by an entry give the natural chain unless they say otherwise; changes in a name come on top.
UniProt P31749: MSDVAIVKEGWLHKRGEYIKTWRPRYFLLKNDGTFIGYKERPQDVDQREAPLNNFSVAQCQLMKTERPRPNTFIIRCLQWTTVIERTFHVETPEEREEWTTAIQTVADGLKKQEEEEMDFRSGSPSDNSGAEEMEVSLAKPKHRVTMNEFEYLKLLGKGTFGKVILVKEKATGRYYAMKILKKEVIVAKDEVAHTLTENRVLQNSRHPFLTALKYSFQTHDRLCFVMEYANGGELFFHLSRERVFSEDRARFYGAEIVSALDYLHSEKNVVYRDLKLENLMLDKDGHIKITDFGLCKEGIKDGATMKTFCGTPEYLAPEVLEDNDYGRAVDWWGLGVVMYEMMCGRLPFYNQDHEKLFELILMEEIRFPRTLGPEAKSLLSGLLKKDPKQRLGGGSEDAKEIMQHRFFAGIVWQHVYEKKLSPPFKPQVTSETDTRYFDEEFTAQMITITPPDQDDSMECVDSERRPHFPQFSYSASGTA
UniProt Q9UM73: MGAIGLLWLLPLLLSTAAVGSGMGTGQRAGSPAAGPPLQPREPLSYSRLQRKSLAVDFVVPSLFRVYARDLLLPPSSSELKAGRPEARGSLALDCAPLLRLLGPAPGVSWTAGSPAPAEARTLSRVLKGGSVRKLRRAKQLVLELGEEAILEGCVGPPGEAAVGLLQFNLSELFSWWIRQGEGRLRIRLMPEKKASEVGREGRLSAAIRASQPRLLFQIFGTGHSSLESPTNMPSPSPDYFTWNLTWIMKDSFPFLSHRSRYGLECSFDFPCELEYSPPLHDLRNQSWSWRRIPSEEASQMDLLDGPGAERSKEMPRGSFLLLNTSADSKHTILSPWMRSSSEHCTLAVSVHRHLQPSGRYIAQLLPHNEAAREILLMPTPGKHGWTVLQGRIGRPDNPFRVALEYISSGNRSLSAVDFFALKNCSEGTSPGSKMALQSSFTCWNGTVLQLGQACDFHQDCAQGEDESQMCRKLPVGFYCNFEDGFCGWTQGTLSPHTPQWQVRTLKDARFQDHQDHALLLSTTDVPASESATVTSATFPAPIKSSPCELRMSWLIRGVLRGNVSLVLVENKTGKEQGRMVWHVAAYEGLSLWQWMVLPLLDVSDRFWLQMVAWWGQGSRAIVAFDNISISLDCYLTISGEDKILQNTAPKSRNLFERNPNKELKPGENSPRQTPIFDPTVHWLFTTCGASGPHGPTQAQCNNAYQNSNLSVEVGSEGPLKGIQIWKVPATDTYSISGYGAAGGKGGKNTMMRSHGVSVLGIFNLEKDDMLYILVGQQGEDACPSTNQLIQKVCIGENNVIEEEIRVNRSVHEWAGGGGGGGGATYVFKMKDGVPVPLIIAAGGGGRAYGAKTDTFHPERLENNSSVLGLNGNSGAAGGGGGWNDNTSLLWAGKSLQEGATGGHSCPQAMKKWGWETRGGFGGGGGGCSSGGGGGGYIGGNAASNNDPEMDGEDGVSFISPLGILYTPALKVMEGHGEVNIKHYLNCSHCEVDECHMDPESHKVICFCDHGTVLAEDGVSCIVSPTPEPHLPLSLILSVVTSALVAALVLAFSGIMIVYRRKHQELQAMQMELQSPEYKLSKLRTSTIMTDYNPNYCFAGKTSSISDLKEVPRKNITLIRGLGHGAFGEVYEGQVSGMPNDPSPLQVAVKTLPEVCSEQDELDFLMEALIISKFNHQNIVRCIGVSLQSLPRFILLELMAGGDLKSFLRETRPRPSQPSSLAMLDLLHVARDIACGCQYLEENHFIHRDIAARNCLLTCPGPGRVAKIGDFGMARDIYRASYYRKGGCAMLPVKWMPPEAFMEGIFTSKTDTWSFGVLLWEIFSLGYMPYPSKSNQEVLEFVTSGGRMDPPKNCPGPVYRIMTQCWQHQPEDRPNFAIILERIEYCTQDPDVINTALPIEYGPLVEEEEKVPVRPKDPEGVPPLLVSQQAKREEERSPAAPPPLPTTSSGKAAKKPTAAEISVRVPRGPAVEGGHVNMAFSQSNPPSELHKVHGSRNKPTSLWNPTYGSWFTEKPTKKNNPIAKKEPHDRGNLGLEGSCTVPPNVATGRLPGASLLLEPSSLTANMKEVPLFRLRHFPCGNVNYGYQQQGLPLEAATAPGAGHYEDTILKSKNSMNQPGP
UniProt P10398: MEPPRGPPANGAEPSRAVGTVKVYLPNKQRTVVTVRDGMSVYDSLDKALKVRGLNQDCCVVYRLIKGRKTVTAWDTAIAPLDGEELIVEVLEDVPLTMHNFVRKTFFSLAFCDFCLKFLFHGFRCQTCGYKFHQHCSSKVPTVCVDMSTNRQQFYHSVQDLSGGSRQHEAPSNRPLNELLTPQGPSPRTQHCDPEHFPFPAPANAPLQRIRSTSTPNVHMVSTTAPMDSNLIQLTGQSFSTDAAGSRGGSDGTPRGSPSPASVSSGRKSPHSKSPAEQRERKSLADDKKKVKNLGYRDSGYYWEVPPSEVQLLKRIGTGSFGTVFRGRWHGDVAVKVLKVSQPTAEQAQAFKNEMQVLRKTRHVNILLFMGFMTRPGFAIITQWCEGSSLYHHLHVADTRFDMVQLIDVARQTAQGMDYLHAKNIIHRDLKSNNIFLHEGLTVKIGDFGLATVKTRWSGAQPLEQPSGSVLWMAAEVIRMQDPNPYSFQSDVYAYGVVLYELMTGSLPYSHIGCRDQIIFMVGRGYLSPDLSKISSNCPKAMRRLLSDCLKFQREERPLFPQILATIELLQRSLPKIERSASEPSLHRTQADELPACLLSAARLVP
UniProt Q96GD4, whole entry: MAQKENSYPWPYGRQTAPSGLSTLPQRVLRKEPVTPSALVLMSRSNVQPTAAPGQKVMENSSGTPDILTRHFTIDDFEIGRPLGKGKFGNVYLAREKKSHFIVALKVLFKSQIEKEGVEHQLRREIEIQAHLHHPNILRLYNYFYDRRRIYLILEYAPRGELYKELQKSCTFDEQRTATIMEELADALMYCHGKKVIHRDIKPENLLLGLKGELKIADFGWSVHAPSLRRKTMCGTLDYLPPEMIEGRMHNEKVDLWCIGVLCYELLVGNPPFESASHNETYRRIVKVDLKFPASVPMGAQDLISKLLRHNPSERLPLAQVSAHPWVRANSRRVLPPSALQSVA
UniProt Q9UQB9: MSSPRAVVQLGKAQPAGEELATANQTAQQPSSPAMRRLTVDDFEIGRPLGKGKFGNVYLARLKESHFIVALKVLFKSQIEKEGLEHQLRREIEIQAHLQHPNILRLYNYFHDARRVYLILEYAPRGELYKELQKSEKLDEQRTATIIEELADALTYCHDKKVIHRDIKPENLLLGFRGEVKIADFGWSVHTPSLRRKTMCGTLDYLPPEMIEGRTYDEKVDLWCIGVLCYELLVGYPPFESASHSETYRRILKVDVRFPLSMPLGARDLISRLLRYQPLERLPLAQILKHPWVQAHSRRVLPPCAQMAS
UniProt P51813: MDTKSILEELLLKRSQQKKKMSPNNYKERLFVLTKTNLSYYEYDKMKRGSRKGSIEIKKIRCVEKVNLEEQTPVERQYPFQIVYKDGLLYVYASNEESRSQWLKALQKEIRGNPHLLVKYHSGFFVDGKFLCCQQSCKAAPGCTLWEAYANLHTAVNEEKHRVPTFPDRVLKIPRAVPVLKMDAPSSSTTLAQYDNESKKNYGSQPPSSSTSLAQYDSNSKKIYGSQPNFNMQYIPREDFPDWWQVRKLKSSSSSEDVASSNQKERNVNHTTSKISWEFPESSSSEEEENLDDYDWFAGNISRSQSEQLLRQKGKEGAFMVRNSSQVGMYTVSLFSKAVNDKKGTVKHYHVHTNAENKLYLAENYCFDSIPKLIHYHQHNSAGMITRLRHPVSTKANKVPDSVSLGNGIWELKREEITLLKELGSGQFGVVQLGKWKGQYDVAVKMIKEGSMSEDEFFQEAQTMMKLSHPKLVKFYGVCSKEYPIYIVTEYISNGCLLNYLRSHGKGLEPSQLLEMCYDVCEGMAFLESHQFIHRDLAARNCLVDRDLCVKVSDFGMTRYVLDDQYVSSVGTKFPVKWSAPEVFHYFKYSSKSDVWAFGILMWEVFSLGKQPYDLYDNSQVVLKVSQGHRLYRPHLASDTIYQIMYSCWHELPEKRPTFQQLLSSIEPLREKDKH
UniProt Q06187: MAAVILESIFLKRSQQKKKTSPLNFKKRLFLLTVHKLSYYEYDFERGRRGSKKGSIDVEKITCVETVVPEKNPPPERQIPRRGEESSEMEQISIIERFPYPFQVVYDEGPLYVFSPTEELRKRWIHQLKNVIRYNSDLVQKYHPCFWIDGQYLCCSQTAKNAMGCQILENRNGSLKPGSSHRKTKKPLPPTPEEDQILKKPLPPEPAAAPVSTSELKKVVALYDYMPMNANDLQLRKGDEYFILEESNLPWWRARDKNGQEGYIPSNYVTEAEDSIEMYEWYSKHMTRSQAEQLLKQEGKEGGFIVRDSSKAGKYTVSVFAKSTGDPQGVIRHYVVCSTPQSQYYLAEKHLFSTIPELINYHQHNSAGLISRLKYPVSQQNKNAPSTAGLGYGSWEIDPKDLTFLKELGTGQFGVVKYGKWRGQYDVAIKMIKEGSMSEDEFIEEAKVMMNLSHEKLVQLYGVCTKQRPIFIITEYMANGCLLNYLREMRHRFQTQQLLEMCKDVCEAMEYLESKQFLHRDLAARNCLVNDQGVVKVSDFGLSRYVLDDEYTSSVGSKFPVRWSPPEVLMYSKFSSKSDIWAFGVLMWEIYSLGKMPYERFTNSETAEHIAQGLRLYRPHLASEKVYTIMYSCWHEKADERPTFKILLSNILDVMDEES
UniProt Q9UQM7, whole entry: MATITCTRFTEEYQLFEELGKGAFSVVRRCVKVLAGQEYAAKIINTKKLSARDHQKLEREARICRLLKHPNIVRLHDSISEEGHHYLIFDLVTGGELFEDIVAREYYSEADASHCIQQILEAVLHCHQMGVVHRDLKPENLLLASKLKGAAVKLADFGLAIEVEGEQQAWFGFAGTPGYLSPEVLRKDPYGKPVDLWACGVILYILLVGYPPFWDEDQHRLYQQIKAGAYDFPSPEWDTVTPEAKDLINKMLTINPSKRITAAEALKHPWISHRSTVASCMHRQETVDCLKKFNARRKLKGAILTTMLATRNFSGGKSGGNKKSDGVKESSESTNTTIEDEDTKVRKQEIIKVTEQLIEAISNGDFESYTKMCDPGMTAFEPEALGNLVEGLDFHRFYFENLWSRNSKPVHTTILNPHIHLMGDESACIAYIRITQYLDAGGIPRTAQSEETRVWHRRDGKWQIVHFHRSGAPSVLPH
UniProt Q15131: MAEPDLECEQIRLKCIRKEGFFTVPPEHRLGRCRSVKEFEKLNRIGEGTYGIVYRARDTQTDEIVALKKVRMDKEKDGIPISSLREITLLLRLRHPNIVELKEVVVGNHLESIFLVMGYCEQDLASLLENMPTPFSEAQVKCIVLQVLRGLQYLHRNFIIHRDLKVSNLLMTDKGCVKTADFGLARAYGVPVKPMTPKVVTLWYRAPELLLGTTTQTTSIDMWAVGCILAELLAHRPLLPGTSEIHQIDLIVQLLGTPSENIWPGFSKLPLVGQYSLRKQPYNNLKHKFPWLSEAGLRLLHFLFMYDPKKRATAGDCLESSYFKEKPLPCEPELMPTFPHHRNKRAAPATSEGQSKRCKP
UniProt Q00526: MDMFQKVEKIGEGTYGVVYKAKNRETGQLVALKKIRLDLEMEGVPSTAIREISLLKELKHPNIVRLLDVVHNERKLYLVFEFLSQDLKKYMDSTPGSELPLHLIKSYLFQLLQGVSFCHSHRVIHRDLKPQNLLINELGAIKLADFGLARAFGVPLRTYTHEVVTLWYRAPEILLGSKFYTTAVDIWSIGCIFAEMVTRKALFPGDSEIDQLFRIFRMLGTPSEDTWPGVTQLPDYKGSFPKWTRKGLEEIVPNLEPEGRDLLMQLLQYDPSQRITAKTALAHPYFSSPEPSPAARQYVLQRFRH
UniProt Q00535, whole entry, looked up: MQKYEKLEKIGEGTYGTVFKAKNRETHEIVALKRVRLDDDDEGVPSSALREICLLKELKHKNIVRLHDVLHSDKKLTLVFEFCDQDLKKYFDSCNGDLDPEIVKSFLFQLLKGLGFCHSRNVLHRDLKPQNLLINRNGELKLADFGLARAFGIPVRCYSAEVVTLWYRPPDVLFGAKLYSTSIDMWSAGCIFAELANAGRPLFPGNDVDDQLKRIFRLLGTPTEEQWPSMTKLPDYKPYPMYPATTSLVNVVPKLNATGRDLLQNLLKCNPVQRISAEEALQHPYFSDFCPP
UniProt Q00534, whole entry: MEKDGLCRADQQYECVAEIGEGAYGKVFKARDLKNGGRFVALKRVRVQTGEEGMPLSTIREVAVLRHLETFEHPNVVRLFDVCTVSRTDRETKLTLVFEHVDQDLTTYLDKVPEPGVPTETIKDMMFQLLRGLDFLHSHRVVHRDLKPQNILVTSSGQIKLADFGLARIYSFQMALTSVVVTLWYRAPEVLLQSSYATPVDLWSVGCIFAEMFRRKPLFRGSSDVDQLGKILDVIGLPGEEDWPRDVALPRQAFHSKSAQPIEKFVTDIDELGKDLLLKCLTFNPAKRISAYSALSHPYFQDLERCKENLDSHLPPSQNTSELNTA

How the values were obtained:
Experiment in all cases: kinase-Nluc reporter destabilization hit call (1 = scored as downregulated) (binary); higher = compound decreases kinase abundance
Conditions in all cases: K562; 2-18 h
ABL1 = ABL1 (UniProt P00519)
AKT1 = AKT1 (UniProt P31749)
ALK = ALK (UniProt Q9UM73)
ARAF = ARAF (UniProt P10398)
AURKA = AURKA (UniProt O14965)
AURKB = AURKB (UniProt Q96GD4)
AURKC = AURKC (UniProt Q9UQB9)
BLK = BLK (UniProt P51451)
BMX = BMX (UniProt P51813)
BRAF = BRAF (UniProt P15056)
BRAF_V600E = tested on: BRAF_V600E
BTK = BTK (UniProt Q06187)
CAMK2A = CAMK2A (UniProt Q9UQM7)
CAMK2G = CAMK2G (UniProt Q13555)
CDK10 = CDK10 (UniProt Q15131)
CDK2 = CDK2 (UniProt P24941)
CDK3 = CDK3 (UniProt Q00526)
CDK4 = CDK4 (UniProt P11802)
CDK5 = CDK5 (UniProt Q00535)
CDK6 = CDK6 (UniProt Q00534)

Measured: kinase-Nluc reporter destabilization hit call

Cc1ccc(Nc2cc(N[C@@H]3CCCC[C@@H]3N)nnc2C(N)=O)nc1C (2 µM)
inactive: ABL1 = 0 | AKT1 = 0 | ALK 0 | ARAF 0 | AURKA 0 | AURKB 0 | AURKC 0 | BLK 0 | BMX 0 | BRAF 0 | BRAF_V600E 0 | BTK 0 | CAMK2A 0 | CAMK2G 0 | CDK10 = 0 | CDK2 = 0 | CDK3 = 0 | CDK4 = 0 | CDK5 = 0 | CDK6 = 0

Cc1ncsc1-c1ccc(CNC(=O)[C@@H]2C[C@@H](O)CN2C(=O)[C@@H](NC(=O)COCCOc2ccc(-c3cc(Nc4ccc(OC(F)(F)F)cc4)ncn3)cc2)C(C)(C)C)cc1 (2.5 µM)
active: ABL1 = 1
inactive: AKT1 = 0 | ALK 0 | ARAF 0 | AURKA 0 | AURKB 0 | AURKC 0 | BLK 0 | BMX 0 | BRAF 0 | BRAF_V600E 0 | BTK 0 | CAMK2A 0 | CAMK2G 0 | CDK10 = 0 | CDK2 = 0 | CDK3 = 0 | CDK4 = 0 | CDK5 = 0 | CDK6 = 0

COc1cc2nccc(Nc3cccc(Oc4ccccc4)c3)c2cc1OC (2.5 µM)
inactive: ABL1 = 0 | AKT1 = 0 | ALK 0 | ARAF 0 | AURKA 0 | AURKB 0 | AURKC 0 | BLK 0 | BMX 0 | BRAF 0 | BRAF_V600E 0 | BTK 0 | CAMK2A 0 | CAMK2G 0 | CDK10 = 0 | CDK2 = 0 | CDK3 = 0 | CDK4 = 0 | CDK5 = 0 | CDK6 = 0

Nc1ccc(O)c(C(=O)O)c1 [5-Aminosalicylic Acid] (10 µM)
inactive: ABL1 = 0 | AKT1 = 0 | ALK 0 | ARAF 0 | AURKA 0 | AURKB 0 | AURKC 0 | BLK 0 | BMX 0 | BRAF 0 | BRAF_V600E 0 | BTK 0 | CAMK2A 0 | CAMK2G 0 | CDK10 = 0 | CDK2 = 0 | CDK3 = 0 | CDK4 = 0 | CDK5 = 0 | CDK6 = 0

C=CC(=O)Nc1cccc(Oc2nc(Nc3ccc(N4CCN(C)CC4)cc3OC)ncc2Cl)c1 (10 µM)
inactive: ABL1 = 0 | AKT1 = 0 | ALK 0 | ARAF 0 | AURKA 0 | AURKB 0 | AURKC 0 | BLK 0 | BMX 0 | BRAF 0 | BRAF_V600E 0 | BTK 0 | CAMK2A 0 | CAMK2G 0 | CDK10 = 0 | CDK2 = 0 | CDK3 = 0 | CDK4 = 0 | CDK5 = 0 | CDK6 = 0

COc1cccc(-c2cc(=O)c3ccccc3o2)c1N (10 µM)
inactive: ABL1 = 0 | AKT1 = 0 | ALK 0 | ARAF 0 | AURKA 0 | AURKB 0 | AURKC 0 | BLK 0 | BMX 0 | BRAF 0 | BRAF_V600E 0 | BTK 0 | CAMK2A 0 | CAMK2G 0 | CDK10 = 0 | CDK2 = 0 | CDK3 = 0 | CDK4 = 0 | CDK5 = 0 | CDK6 = 0

O=C1Cc2ccccc2N1 [Oxindole] (10 µM)
inactive: ABL1 = 0 | AKT1 = 0 | ALK 0 | ARAF 0 | AURKA 0 | AURKB 0 | AURKC 0 | BLK 0 | BMX 0 | BRAF 0 | BRAF_V600E 0 | BTK 0 | CAMK2A 0 | CAMK2G 0 | CDK10 = 0 | CDK2 = 0 | CDK3 = 0 | CDK4 = 0 | CDK5 = 0 | CDK6 = 0

Cn1c(N2CCO[C@@H](c3ccc(F)cc3)C2)nc(-c2ccncn2)cc1=O (10 µM)
inactive: ABL1 = 0 | AKT1 = 0 | ALK 0 | ARAF 0 | AURKA 0 | AURKB 0 | AURKC 0 | BLK 0 | BMX 0 | BRAF 0 | BRAF_V600E 0 | BTK 0 | CAMK2A 0 | CAMK2G 0 | CDK10 = 0 | CDK2 = 0 | CDK3 = 0 | CDK4 = 0 | CDK5 = 0 | CDK6 = 0

Nc1ccc(-c2nc3ccc(-c4nc5ccc(N)cc5[nH]4)cc3[nH]2)cc1 (10 µM)
inactive: ABL1 = 0 | AKT1 = 0 | ALK 0 | ARAF 0 | AURKA 0 | AURKB 0 | AURKC 0 | BLK 0 | BMX 0 | BRAF 0 | BRAF_V600E 0 | BTK 0 | CAMK2A 0 | CAMK2G 0 | CDK10 = 0 | CDK2 = 0 | CDK3 = 0 | CDK4 = 0 | CDK5 = 0 | CDK6 = 0

Cn1cc(-c2nc(N[C@@H]3CCCC[C@@H]3N)c(F)c3c2C(=O)NC3)cn1 [TAK-659 (hydrochloride)] (2 µM)
inactive: ABL1 = 0 | AKT1 = 0 | ALK 0 | ARAF 0 | AURKA 0 | AURKB 0 | AURKC 0 | BLK 0 | BMX 0 | BRAF 0 | BRAF_V600E 0 | BTK 0 | CAMK2A 0 | CAMK2G 0 | CDK10 = 0 | CDK2 = 0 | CDK3 = 0 | CDK4 = 0 | CDK5 = 0 | CDK6 = 0

CC1(C)CN(C(=O)c2ccc(-c3cccc4nc(NC(=O)C5CC5)nn34)cc2)C1 [Solcitinib] (10 µM)
inactive: ABL1 = 0 | AKT1 = 0 | ALK 0 | ARAF 0 | AURKA 0 | AURKB 0 | AURKC 0 | BLK 0 | BMX 0 | BRAF 0 | BRAF_V600E 0 | BTK 0 | CAMK2A 0 | CAMK2G 0 | CDK10 = 0 | CDK2 = 0 | CDK3 = 0 | CDK4 = 0 | CDK5 = 0 | CDK6 = 0

COc1ccc(Br)c(C=O)c1O [6-Bromo-2-hydroxy-3-methoxybenzaldehyde] (10 µM)
inactive: ABL1 = 0 | AKT1 = 0 | ALK 0 | ARAF 0 | AURKA 0 | AURKB 0 | AURKC 0 | BLK 0 | BMX 0 | BRAF 0 | BRAF_V600E 0 | BTK 0 | CAMK2A 0 | CAMK2G 0 | CDK10 = 0 | CDK2 = 0 | CDK3 = 0 | CDK4 = 0 | CDK5 = 0 | CDK6 = 0
